{"source": "PubChem BioAssay AID540256", "about": "(National Center for Advancing Translational Sciences (NCATS), 2011)", "note": "Hit rate of the full screen: of about 300,000 compounds, about 3,700 (1.2%) were called active. Inconclusive means that the source gave no clear call. Such entries were picked first, then a sample of the others. Calls follow the shape of the full dose curve; tested in HEK293 cells. Potencies of inconclusive entries are doubtful fits and often do not repeat. Potency is read from the fitted curve at half-maximal effect."}
{"assay": "qHTS for Inhibitors of binding or entry into cells for Lassa Virus; also: nearly all actives have a fitted effect of over 50% in size", "details": "Lassa virus pseudotype entry inhibition, cell reporter; series mostly up to 37.9 µM"}
{"smiles": "Cc1occc1C(=O)Nc1nccs1", "Potency": "inactive"}
{"smiles": "O=C(CN1C(=O)c2cccnc2C1=O)c1ccccc1", "Potency": "inactive"}
{"smiles": "O=C(N1CCOCC1)N1CCC(n2nnc3cc(F)ccc32)CC1", "Potency": "inactive"}
{"smiles": "O/N=C/c1cn(-c2ccccc2)nn1", "Potency": "inconclusive: 10 µM [activator, partial curve, poor fit]"}
{"smiles": "CC(CO)NCC12CC3CC(CC(C3)C1)C2", "note": "(configuration not stated)", "Potency": "inconclusive: 0.708 µM [inhibitor, single point]"}
{"smiles": "COc1ccc(OCc2nnc(SCC(=O)c3ccccc3)o2)cc1", "Potency": "inconclusive: 29.1 µM [inhibitor, single point]"}
{"smiles": "COc1cc(-c2nc3nc(C)cc(C)n3c2Nc2ccc(Cl)cc2)ccc1O", "Potency": "inconclusive: 35.5 µM [inhibitor, single point]"}
{"smiles": "Cc1ccc(O)c(CNc2ccccn2)c1", "Potency": "inactive"}
{"smiles": "COc1ccc(-c2csc(NC(=O)C3CCN(C(=O)c4ccc(F)cc4)CC3)n2)cc1OC", "Potency": "active: 15.8 µM"}
{"smiles": "CC(Oc1ccccc1)C(=O)Nc1nnc2n1CCS2", "note": "(configuration not stated)", "Potency": "inactive"}
{"smiles": "O=C1CSC(c2cccnc2)N1c1cccc(Cl)c1", "note": "(configuration not stated)", "Potency": "inactive"}
{"smiles": "Cc1ccc(COc2ccc3c(c2)OCO3)cc1", "Potency": "inconclusive: 35.5 µM [inhibitor, single point]"}
{"smiles": "CCN(CC)c1ccc(NC(=O)/C=C\\c2ccccc2Cl)cc1", "Potency": "inactive"}
{"smiles": "Cc1ccc(C)c(Cn2nnc3c(=O)[nH]c(C4CCCN(S(=O)(=O)Cc5ccccc5)C4)nc32)c1", "note": "(configuration not stated)", "Potency": "inconclusive: 0.631 µM [inhibitor, full curve, poor fit]"}
{"smiles": "CCOc1ccc(CCN2CN(C3CCCCC3)CNC2=S)cc1OCC", "Potency": "inconclusive: 25.1 µM [inhibitor, single point]"}
{"smiles": "O=C(NCc1ccco1)c1ccc(Br)s1", "Potency": "inconclusive: 0.82 µM [activator, full curve, poor fit]"}
{"smiles": "Cn1c(=O)c(C(=O)NCCc2ccccc2)c(O)c2ccccc21", "Potency": "inconclusive: 15.8 µM [inhibitor, single point]"}
{"smiles": "C/C(=N\\NC(=O)c1nn(C)c(C)c1Br)c1cccc(NC(=O)c2ccc(F)cc2)c1", "Potency": "inactive"}
{"smiles": "COc1ccc(-n2c(=O)c(CCC(=O)N3CCN(c4ccccc4O)CC3)nc3ccccc32)cc1", "Potency": "inconclusive: 25.1 µM [inhibitor, single point]"}
{"smiles": "CCCOc1ccc(N2C(=O)CC(NCC#N)C2=O)cc1", "note": "(configuration not stated)", "Potency": "inconclusive: 7.08 µM [activator, partial curve, poor fit]"}
{"smiles": "CCN(CC)C(=O)c1ccc(NC(=O)c2cccc(F)c2)cc1", "Potency": "inactive"}
{"smiles": "CC(=O)n1nc(-c2cccc(C)c2)nc1SCC(=O)Nc1ccccc1", "Potency": "inconclusive: 18.3 µM [inhibitor, partial curve]"}
{"smiles": "CCOc1ccc(NC(=O)CSc2ncc3c(n2)-c2ccccc2N(Cc2ccccc2C)S3(=O)=O)cc1", "Potency": "inconclusive: 3.16 µM [inhibitor, single point]"}
{"smiles": "CCOc1ccc(S(=O)(=O)N(CC)CC(=O)NCc2cccnc2)cc1C", "Potency": "inconclusive: 0.708 µM [inhibitor, partial curve, poor fit]"}
{"smiles": "COc1cccc(/C=C/C(=O)Nc2ccc3nc(N4CCN(C)CC4)cc(C)c3c2)c1OC", "Potency": "inconclusive: 35.5 µM [inhibitor, single point]"}
{"smiles": "Cc1ccc(O)c(NC(=O)c2cc3nc4c(c(C(F)(F)F)n3n2)CCc2ccccc2-4)c1", "Potency": "inactive"}
{"smiles": "CCCn1c2ccccc2c2cnn(CC(=O)N(CCCOC)Cc3ccco3)c(=O)c21", "Potency": "inactive"}
{"smiles": "COc1cc(SC)ccc1C(=O)Nc1cccc(C)n1", "Potency": "active: 8.91 µM"}
{"smiles": "C/C(=C\\C(=O)c1ccc(Br)cc1)N1CCCCC1", "Potency": "inactive"}
{"smiles": "CCc1ccccc1N1CC(c2nc3ccccc3n2CCCCOc2ccccc2)CC1=O", "note": "(configuration not stated)", "Potency": "inconclusive: 3.16 µM [inhibitor, partial curve, poor fit]"}
{"smiles": "O=C(Nc1ccc(N2CCOCC2)cc1)c1ccc(Br)o1", "Potency": "inconclusive: 35.5 µM [inhibitor, single point]"}
{"smiles": "CCN(CC)C(=O)CN(c1ccc(C)cc1)S(=O)(=O)c1ccc(SC)cc1", "Potency": "inconclusive: 29.1 µM [inhibitor, single point]"}
{"smiles": "CCOC(=O)c1ccc2ncc3c(-c4ccccc4)nn(-c4ccc(F)c(Cl)c4)c3c2c1", "Potency": "inactive"}
{"smiles": "CCOC(=O)c1cnn(-c2cc(C)nc3c(-c4ccccc4)cnn23)c1N", "Potency": "inactive"}
{"smiles": "COc1cc(S(=O)(=O)Nc2ccc3cn[nH]c3c2)ccc1Cl", "Potency": "inconclusive: 3.55 µM [activator, partial curve, poor fit]"}
{"smiles": "CC(C)c1nc2ccc(C(=O)NC(C)c3ccccc3)cc2o1", "note": "(configuration not stated)", "Potency": "inactive"}
{"smiles": "COc1ccc(CCNC(=O)c2ccc3c(c2)ncn3-c2ccc(C)cc2C)cc1OC", "Potency": "inconclusive: 2 µM [inhibitor, full curve, poor fit]"}
{"smiles": "Cc1c(C(=O)N2CCN(c3ccccc3)CC2)sc2nc3n(c(=O)c12)CCC3", "Potency": "inconclusive: 10 µM [inhibitor, partial curve, poor fit]"}
{"smiles": "CCOc1ccc(/C=N/NC2=NCCCCC2)cc1", "Potency": "inactive"}
{"smiles": "CCOC(=O)C1=C(C)NC(=O)NC1c1cccc(OC)c1OCc1ccccc1Cl", "note": "(configuration not stated)", "Potency": "inconclusive: 18.3 µM [inhibitor, partial curve]"}
{"smiles": "Cc1cc(C)c(C#N)c(SCC(=O)c2cc(C)n(CCc3ccccc3)c2C)n1", "Potency": "inconclusive: 1.41 µM [inhibitor, partial curve, poor fit]"}
{"smiles": "COc1ccc(-c2csc(N(C)C(=O)c3ccco3)n2)cc1", "Potency": "inactive"}
{"smiles": "CCn1c(SCC(=O)Nc2cccc(NC(=O)c3ccco3)c2)nnc1-c1cccs1", "Potency": "inconclusive: 14.1 µM [inhibitor, partial curve, poor fit]"}
{"smiles": "CN(C)CCNC(=O)c1cccc2[nH]c(-c3ccncc3)nc12", "Potency": "inconclusive: 22.4 µM [inhibitor, single point]"}
{"smiles": "CCOc1ccc(CCNC(=O)c2ccc(N3CCCC3=O)cc2)cc1OCC", "Potency": "inactive"}
{"smiles": "COc1ccc(S(=O)(=O)N2CCN(CCCOc3ccc(F)cc3)CC2)cc1OC", "Potency": "inconclusive: 35.5 µM [inhibitor, single point]"}
{"smiles": "CC(=O)c1cc2c(cc1N/C(=N/S(=O)(=O)c1ccc(C)cc1)c1ccc(F)cc1)OCO2", "Potency": "inactive"}
{"smiles": "CCN(CC)CCNC(=O)c1ccc2c(=O)n3nc(Nc4ccccc4OC)sc3nc2c1", "Potency": "inactive"}
{"smiles": "O=C1CC(=O)N(Cc2ccccc2)C(=S)N1", "Potency": "inactive"}
{"smiles": "CCc1nc2ccccc2c(C(=O)OCC(=O)Nc2cccc(S(=O)(=O)NC3=NCCCCC3)c2)c1C", "Potency": "active: 22.4 µM"}
{"smiles": "COc1ccc(COC(=O)c2sc3nc4n(c(=O)c3c2C)CCC4)cc1", "Potency": "inactive"}
{"smiles": "O=C(N/N=C/c1cc(Br)cs1)c1ccc2c(c1)OCCO2", "Potency": "inconclusive: 22.4 µM [inhibitor, single point]"}
{"smiles": "Cc1ccc(C2=NN(S(C)(=O)=O)C(c3ccc4c(c3)OCO4)C2)cc1", "note": "(configuration not stated)", "Potency": "inconclusive: 0.58 µM [activator, partial curve, poor fit]"}
{"smiles": "COc1cccc(OC)c1C(=O)NN1CCCCC1", "Potency": "inconclusive: 0.231 µM [inhibitor, partial curve, poor fit]"}
{"smiles": "CC(C)(C)CC(=O)O/N=C(\\N)c1ccccn1", "Potency": "inconclusive: 11.2 µM [inhibitor, partial curve]"}
{"smiles": "CCN1C(C(=O)c2ccccc2)=C(OC(=O)c2ccccc2OC)c2ccccc2S1(=O)=O", "Potency": "inconclusive: 12.6 µM [inhibitor, single point]"}
{"smiles": "O=C(Nc1ccc(N2CCOCC2)cc1)c1cccnc1", "Potency": "inconclusive: 18.3 µM [activator, partial curve, poor fit]"}
{"smiles": "COc1cc(NC(=O)OCc2ccccc2)c2ncccc2c1", "Potency": "inactive"}
{"smiles": "O=C(O)c1ccccc1S(=O)(=O)CC(=O)N1CCCCC1", "Potency": "inactive"}
{"smiles": "CCOC(=O)Nc1nnc(/C=C/c2ccc(OC)cc2)s1", "Potency": "inactive"}
{"smiles": "C#CCOC(=O)Nc1ccc(OCC(F)(F)F)nc1", "Potency": "inconclusive: 12.6 µM [inhibitor, partial curve, poor fit]"}
{"smiles": "Cc1ccc2cc3cc(C(=O)NCc4ccco4)oc3nc2c1", "Potency": "inconclusive: 0.501 µM [inhibitor, full curve, poor fit]"}
{"smiles": "C/C(=N\\NC(=O)Cc1ccccc1[N+](=O)[O-])c1cccnc1", "Potency": "inconclusive: 35.5 µM [activator, single point]"}
{"smiles": "CC(=O)c1c(C)[nH]c(C(=O)OCC(=O)Nc2cccc(S(=O)(=O)N3CCCC3)c2)c1C", "Potency": "inconclusive: 7.08 µM [inhibitor, partial curve, poor fit]"}
{"smiles": "Cc1ccc(C(c2nnnn2Cc2cccs2)N2CCN(Cc3ccc4c(c3)OCO4)CC2)cc1", "note": "(configuration not stated)", "Potency": "active: 11.2 µM"}
{"smiles": "CCOC(=O)C(=CNc1cc(C)nn1-c1ccccc1)C(=O)OCC", "Potency": "inconclusive: 8.2 µM [inhibitor, partial curve]"}
{"smiles": "Cc1ccc(NC(=O)CSc2nc3ccccc3nc2N2CCOCC2)cc1", "Potency": "inconclusive: 25.1 µM [inhibitor, single point]"}
{"smiles": "Cc1ccc(-c2cc(C(=O)N/N=C/C(Br)=C/c3ccccc3)n[nH]2)o1", "Potency": "inconclusive: 35.5 µM [inhibitor, partial curve, poor fit]"}
{"smiles": "COc1ccc(/C=N\\NC(=O)c2cccc(Br)c2)c(OC)c1", "Potency": "inconclusive: 6.31 µM [inhibitor, single point]"}
{"smiles": "O=C1NC(c2cccc3ccccc23)Nc2ccc(Cl)cc21", "note": "(configuration not stated)", "Potency": "inconclusive: 0.355 µM [inhibitor, full curve, poor fit]"}
{"smiles": "Cc1ccccc1NC(=O)c1ccc(COc2ccc3c(C)cc(=O)oc3c2)cc1", "Potency": "inconclusive: 14.6 µM [inhibitor, partial curve, poor fit]"}
{"smiles": "COc1cccc(COC(=O)c2c(C)nn(-c3ccccc3)c2Cl)c1OC", "Potency": "inconclusive: 35.5 µM [inhibitor, partial curve, poor fit]"}
